## Assay results

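SH-SY5Y cells carrying a GLuc-SERCaMP reporter are challenged with thapsigargin, and luminescence from the secreted luciferase is read, with one incubation step lasting 4 hours. Compounds were run as a dilution series spanning about 2.6e-05 to 200 µM, mostly topping out at 38.4 µM. The number is the fitted AC50 for inhibition of the reporter signal; a lower value means a more potent compound. Calls come from curve class and activity score: actives score 40 to 100, inconclusives 1 to 39, and inactives (curve class 4) score 0.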

Values are in µM. Every entry below has the call inconclusive. These entries are mostly ones the record files as inconclusive; other results of the assay are not listed here. A potency from a partial, single-point or poor curve is only a rough figure. Some entries filed as inconclusive have a full curve. Activity scores are not listed here.

For CCCC[N+]1(C)C2CC(OC(=O)[C@H](CO)c3ccccc3)CC1C1OC12 (stereo partly shown) the result was fitted potency 7.08 µM (inhibitor, partial curve, poor fit). For NC(C(=O)N[C@@H]1C(=O)N2C(C(=O)O)=C(Cl)CS[C@H]12)c1ccccc1 (stereo partly shown) the result was fitted potency 2.239 µM (inhibitor, full curve, poor fit). Cc1ccc(C(=O)Nc2ccc(S(=O)(=O)O)c3cc(S(=O)(=O)O)cc(S(=O)(=O)O)c23)cc1NC(=O)c1cccc(NC(=O)Nc2cccc(C(=O)Nc3cc(C(=O)Nc4ccc(S(=O)(=O)O)c5cc(S(=O)(=O)O)cc(S(=O)(=O)O)c45)ccc3C)c2)c1 read fitted potency 31.62 µM (inhibitor, partial curve, poor fit). With CN1CCN(c2ncncc2-c2ccoc2)CC1 the assay gave fitted potency 10 µM (inhibitor, partial curve, poor fit). NS(=O)(=O)c1ccc(NC(=O)CCC(=O)O)cc1 gave fitted potency 31.62 µM (inhibitor, single point). COCCn1c(=O)c(-c2ccccc2)nc2cnc(N3CCNCC3)nc21 read fitted potency 31.62 µM (inhibitor, partial curve, poor fit). N.N.N.N.N.N.N.N.N.N.N.N.N.N.O.O.[Ru+4].[Ru+5].[Ru+5] read fitted potency 2.512 µM (inhibitor, full curve, poor fit). Result for c1ccc2c(NCCN3CCOCC3)nc(-c3ccoc3)nc2c1 was fitted potency 25.12 µM (inhibitor, single point).

With N#Cc1cccc(-c2cncnc2-n2ccnc2)c1 the assay gave fitted potency 2.239 µM (inhibitor, full curve, poor fit). COCCn1c(=O)c(-c2cc(F)cc(F)c2)nc2cnc(N3CCNCC3)nc21 read fitted potency 7.943 µM (inhibitor, partial curve, poor fit). CCCN(CCC)CCc1ccc(O)c(O)c1 read fitted potency 8.912 µM (inhibitor, partial curve, poor fit). Cc1[nH]c(=O)c(C#N)cc1-c1ccc2nccn2c1 read fitted potency 1.995 µM (inhibitor, full curve). For CC(=O)N[C@H]1[C@H]([C@H](O)[C@H](O)CO)OC(C(=O)O)=C[C@@H]1N=C(N)N the result was fitted potency 22.39 µM (inhibitor, single point). CO[C@H]1C=CO[C@@]2(C)Oc3c(C)c(O)c4c(O)c(c(/C=N/N5CCN(C)CC5)c(O)c4c3C2=O)NC(=O)/C(C)=C\C=C[C@H](C)[C@H](O)[C@@H](C)[C@@H](O)[C@@H](C)[C@H](OC(C)=O)[C@@H]1C gave fitted potency 12.59 µM (inhibitor, single point). O=C(Nc1ccc([N+](=O)[O-])cc1Cl)c1cc(Cl)ccc1O read fitted potency 1.259 µM (inhibitor, full curve, poor fit). Cc1ccc(S(=O)(=O)NCc2ccccc2)cc1 read fitted potency 2.239 µM (inhibitor, full curve, poor fit).

With O=c1c(-c2ccccc2)nc2cnc(Oc3ccccc3)nc2n1C1CC1 the assay gave fitted potency 3.548 µM (inhibitor, full curve, poor fit). For NC/C=C/C(=O)O the result was fitted potency 7.943 µM (inhibitor, partial curve, poor fit). Result for O=c1c(-c2ccccc2)nc2cnc(Oc3ccccc3)nc2n1C[C@H]1CCCO1 was fitted potency 28.18 µM (inhibitor, single point). CCCCCCCCCCCCCCCC(=O)O read fitted potency 11.22 µM (inhibitor, partial curve, poor fit). CC(C)(Oc1ccc(Cl)cc1)C(=O)O read fitted potency 3.162 µM (inhibitor, full curve). COCCn1c(=O)c(-c2ccc(Cl)cc2)nc2cnc(OC)nc21 gave fitted potency 10 µM (inhibitor, partial curve, poor fit). CCCCC/C=C\C/C=C\C/C=C\C/C=C\CCCC(=O)Nc1ccc(O)cc1 gave fitted potency 2.512 µM (inhibitor, full curve). For Cc1[nH]c(=O)c(C#N)cc1-c1ccncc1 the result was fitted potency 3.162 µM (inhibitor, partial curve, poor fit).

Nc1nc2c(nc(Br)n2C2OC3COP(=O)(O)O[C@@H]3C2O)c(=O)[nH]1 (stereo partly shown) gave fitted potency 2.818 µM (inhibitor, full curve, poor fit). Cc1nc2cnc(N3CCN(C)CC3)nc2n(C[C@H]2CCCO2)c1=O read fitted potency 2.512 µM (inhibitor, full curve, poor fit). c1ccc2c(CN3CCNCC3)cccc2c1 read fitted potency 16.77 µM (inhibitor, partial curve, poor fit). With O=Nc1c(-c2c(O)[nH]c3ccccc23)[nH]c2ccccc12 the assay gave fitted potency 6.31 µM (inhibitor, partial curve, poor fit). With COc1ccccc1-c1ccc2ncnc(N(C)C)c2c1 the assay gave fitted potency 28.18 µM (inhibitor, single point). COc1ccc(-c2nc3cnc(N4CCNCC4)nc3n(-c3ccc(OC)cc3)c2=O)cc1 gave fitted potency 8.912 µM (inhibitor, partial curve, poor fit).

Some entries from above, unchanged:

compound	fitted potency (µM)	curve as filed
COc1ccc(-c2nc3cnc(N4CCNCC4)nc3n(-c3ccc(OC)cc3)c2=O)cc1	8.912	inhibitor, partial curve, poor fit
Cc1ccc(C(=O)Nc2ccc(S(=O)(=O)O)c3cc(S(=O)(=O)O)cc(S(=O)(=O)O)c23)cc1NC(=O)c1cccc(NC(=O)Nc2cccc(C(=O)Nc3cc(C(=O)Nc4ccc(S(=O)(=O)O)c5cc(S(=O)(=O)O)cc(S(=O)(=O)O)c45)ccc3C)c2)c1	31.62	inhibitor, partial curve, poor fit

Source: PubChem BioAssay AID1508630 (NCATS, 2021).